These are yes or no findings as the source states them, for the method shown. Binding seen in cells or lysates may run through a third protein. Some results given as binding are weak or reduced against the parent protein; the word gives no strength.

Protein sequences, listed by entry. Tags and fused reporters are not part of them.
UniProt Q03135: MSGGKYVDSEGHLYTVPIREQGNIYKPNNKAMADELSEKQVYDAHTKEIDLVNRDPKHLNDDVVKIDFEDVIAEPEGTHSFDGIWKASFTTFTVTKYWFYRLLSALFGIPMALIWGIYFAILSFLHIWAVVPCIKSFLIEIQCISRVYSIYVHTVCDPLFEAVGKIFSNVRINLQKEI
UniProt Q92731: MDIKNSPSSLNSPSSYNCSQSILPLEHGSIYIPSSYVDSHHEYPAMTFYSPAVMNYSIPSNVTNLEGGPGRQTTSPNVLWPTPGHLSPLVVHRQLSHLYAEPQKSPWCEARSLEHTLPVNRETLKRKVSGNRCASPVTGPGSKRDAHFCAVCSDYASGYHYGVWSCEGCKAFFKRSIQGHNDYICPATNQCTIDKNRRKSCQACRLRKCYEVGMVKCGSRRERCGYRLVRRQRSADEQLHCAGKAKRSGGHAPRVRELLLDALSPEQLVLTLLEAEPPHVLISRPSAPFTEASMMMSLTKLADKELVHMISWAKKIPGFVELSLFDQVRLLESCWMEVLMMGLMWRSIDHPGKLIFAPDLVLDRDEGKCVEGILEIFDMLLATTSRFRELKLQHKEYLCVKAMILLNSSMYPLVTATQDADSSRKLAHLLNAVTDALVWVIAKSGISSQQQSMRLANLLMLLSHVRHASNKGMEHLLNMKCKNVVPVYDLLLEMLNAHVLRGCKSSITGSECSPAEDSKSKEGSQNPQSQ

The experiment deals with EGF receptor (EGFR), membrane associated (human (endogenous in REN)) (UniProt P00533). Description: co-IP; intact REN cells (wild type, mock- or ERβ-transfected; untreated or 5 ng/ml EGF for 1 or 5 min) incubated with anti-EGFR antibodies 1 h at 4°C, then lysed in 1% NP-40, 150 mM NaCl, 50 mM Tris-HCl pH 8; 2 mg extract with protein A-Sepharose; blots for EGFR, ERβ and caveolin 1.
Turning to caveolin 1 (from UniProt Q03135 1-178), the binding entry is listed as “binds”.
The same measure for “estrogen receptor beta (ERβ), endogenous in REN cells (from UniProt Q92731 1-530)”: “binds”; for “human wild type ERβ expressed from the pCXN2 plasmid (from UniProt Q92731 1-530)”: “binds”.

For the origin of these results see paper PMC2993924.
